Laboratory results reported in paper PMC8483405.
These are yes or no findings as the source states them, for the method shown. In cells and extracts the contact can be indirect. Some entries that bind do so weakly or less than the wild type.

Columns and labels:
[1] = biological target: DNA topoisomerase II alpha (TOP2α), endogenous (human (endogenous in HEK293T)) (UniProt P11388); assay: co-IP; lysates of HEK293T cells transfected with FLAG-BPLF1 or FLAG-BPLF1^C61A, untreated or treated with 40 μM Etoposide for 30 min; immunoprecipitated with anti-TOP2α or anti-TOP2β antibodies 3 h at 4°C, captured on protein-G beads; western blot for FLAG
[2] = biological target: DNA topoisomerase II beta (TOP2β), endogenous (human (endogenous in HEK293T)) (UniProt Q02880); assay: as above
[3] = biological target: 3xFLAG-BPLF1 (amino acid 1–235), N-terminal catalytic domain of the EBV large tegument protein BPLF1 (Epstein-Barr virus) (UniProt P03186); assay: co-IP; lysates of HEK293T cells transfected with FLAG-BPLF1 or FLAG-BPLF1^C61A, untreated or treated with 40 μM Etoposide for 30 min; NP40 lysis buffer; immunoprecipitated with anti-FLAG agarose 3 h at 4°C, eluted with FLAG peptide; western blot for TOP2α, TOP2β, TOP1

Row | Substance | binding [1] | binding [2] | binding [3]
1 | 3xFLAG-BPLF1 (amino acid 1–235), N-terminal catalytic domain of the EBV large tegument protein BPLF1 (from UniProt P03186 1-235) (enzyme) | binds | binds | –
2 | DNA topoisomerase I (TOP1), endogenous (from UniProt P11387 1-765) (enzyme) | – | – | no binding
3 | DNA topoisomerase II beta (TOP2β), endogenous (from UniProt Q02880 1-1626) (enzyme) | – | – | binds
